Article PMC7930037
These are yes or no findings as the source states them, for the method shown. In cells and extracts the contact can be indirect. For some assays here: Binding can be weak; no strength is given. Where a sequence is shown, tags or fusion partners need not be part of it.

What was measured:
GST-AMPKα = assay: pull-down; GST fusion from E. coli extract on glutathione-Sepharose 4B beads (2 h, 4 °C), incubated with purified Flag-tagged protein; eluted with 20 mM reduced glutathione; anti-Flag blot; purified GST as control; both purified
GST-AMPKβ1 = assay: as above

binding (GST-AMPKα): no binding
binding (GST-AMPKβ1): binds
B1: Flag-tagged WBP2 (protein, UniProt Q969T9 1-261)
chain: MALNKNHSEGGGVIVNNTESILMSYDHVELTFNDMKNVPEAFKGTKKGTVYLTPYRVIFLSKGKDAMQSFMMPFYLMKDCEIKQPVFGANYIKGTVKAEAGGGWEGSASYKLTFTAGGAIEFGQRMLQVASQASRGEVPSGAYGYSYMPSGAYVYPPPVANGMYPCPPGYPYPPPPPEFYPGPPMMDGAMGYVQPPPPPYPGPMEPPVSGPDVPSTPAAEAKAAEAAASAYYNPGNPHNVYMPTSQPPPPPYYPPEDKKTQ
